Measured values taken from PMC5696344.
Results are given in words; binding and its absence hold for the method and conditions named. For some assays here: Binding seen in cells or lysates may run through a third protein. Some results given as binding are weak or reduced against the parent protein; the word gives no strength. For some assays here: Tags and fused reporters may be left off the sequences shown. One block for each molecule: values may come before it.

Chains of the proteins cited; added tags and fusions are not shown.
UniProt Q24572: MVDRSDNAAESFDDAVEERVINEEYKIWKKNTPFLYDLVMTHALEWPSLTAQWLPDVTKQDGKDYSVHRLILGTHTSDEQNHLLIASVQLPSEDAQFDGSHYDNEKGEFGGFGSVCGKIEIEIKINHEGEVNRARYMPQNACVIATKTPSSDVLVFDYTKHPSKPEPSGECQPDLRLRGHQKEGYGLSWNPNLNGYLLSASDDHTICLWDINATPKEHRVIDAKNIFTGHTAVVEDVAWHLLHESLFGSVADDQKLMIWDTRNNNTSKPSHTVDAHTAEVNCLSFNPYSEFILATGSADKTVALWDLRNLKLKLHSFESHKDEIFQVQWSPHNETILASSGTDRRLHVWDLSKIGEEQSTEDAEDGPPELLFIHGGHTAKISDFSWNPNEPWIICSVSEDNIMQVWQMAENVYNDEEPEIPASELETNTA

How the values were obtained:
[1] = molecular target: T1, Flag-tagged truncated form of Drosophila Ash1 (Ash1C, amino acids 1146–2226) (Drosophila) (UniProt Q9VW15); experiment: co-IP; western blot (antibodies against Flag, Nurf55 and Mrg15) of the anti-Flag affinity-purified material from S2 cells expressing Flag-Ash1C; washing with 500 mM KCl
T1 sequence: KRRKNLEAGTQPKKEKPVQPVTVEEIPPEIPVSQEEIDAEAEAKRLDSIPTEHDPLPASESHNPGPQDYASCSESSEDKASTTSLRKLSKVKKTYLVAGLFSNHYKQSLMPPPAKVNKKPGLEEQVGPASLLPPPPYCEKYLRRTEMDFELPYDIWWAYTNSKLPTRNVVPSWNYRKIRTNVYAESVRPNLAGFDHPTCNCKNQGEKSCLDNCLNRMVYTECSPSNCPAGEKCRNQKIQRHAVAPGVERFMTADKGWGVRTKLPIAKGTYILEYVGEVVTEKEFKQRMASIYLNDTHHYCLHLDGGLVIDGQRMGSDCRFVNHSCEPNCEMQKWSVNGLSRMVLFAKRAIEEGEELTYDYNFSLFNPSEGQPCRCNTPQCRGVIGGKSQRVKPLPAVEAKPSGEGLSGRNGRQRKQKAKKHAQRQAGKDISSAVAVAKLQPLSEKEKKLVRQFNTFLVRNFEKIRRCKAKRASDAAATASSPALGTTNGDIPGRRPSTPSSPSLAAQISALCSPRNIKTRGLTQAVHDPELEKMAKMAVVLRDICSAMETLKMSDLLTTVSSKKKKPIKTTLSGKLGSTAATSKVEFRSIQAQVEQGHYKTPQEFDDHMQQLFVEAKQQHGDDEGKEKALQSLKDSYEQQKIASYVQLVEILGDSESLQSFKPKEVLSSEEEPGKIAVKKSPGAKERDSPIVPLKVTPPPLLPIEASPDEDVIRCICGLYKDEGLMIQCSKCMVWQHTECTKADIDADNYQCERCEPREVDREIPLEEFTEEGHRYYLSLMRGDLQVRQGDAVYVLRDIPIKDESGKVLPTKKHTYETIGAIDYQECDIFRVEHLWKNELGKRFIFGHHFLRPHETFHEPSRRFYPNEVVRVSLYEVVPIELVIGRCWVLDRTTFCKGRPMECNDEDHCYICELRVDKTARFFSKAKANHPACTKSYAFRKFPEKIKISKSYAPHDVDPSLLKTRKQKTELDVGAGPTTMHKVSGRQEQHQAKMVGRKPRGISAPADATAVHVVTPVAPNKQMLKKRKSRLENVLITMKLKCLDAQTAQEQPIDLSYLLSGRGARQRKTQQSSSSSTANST

[2] = molecular target: T1, Flag-tagged truncated form of Drosophila Ash1 (Ash1C, amino acids 1146–2226) (Drosophila); experiment: co-IP; Flag-tagged Ash1C, its truncations and alanine substitutions; cells not given
[3] = molecular target: T2, Flag-tagged Ash1C with the R1288A substitution (Drosophila) (UniProt Q9VW15); experiment: as above
T2 sequence: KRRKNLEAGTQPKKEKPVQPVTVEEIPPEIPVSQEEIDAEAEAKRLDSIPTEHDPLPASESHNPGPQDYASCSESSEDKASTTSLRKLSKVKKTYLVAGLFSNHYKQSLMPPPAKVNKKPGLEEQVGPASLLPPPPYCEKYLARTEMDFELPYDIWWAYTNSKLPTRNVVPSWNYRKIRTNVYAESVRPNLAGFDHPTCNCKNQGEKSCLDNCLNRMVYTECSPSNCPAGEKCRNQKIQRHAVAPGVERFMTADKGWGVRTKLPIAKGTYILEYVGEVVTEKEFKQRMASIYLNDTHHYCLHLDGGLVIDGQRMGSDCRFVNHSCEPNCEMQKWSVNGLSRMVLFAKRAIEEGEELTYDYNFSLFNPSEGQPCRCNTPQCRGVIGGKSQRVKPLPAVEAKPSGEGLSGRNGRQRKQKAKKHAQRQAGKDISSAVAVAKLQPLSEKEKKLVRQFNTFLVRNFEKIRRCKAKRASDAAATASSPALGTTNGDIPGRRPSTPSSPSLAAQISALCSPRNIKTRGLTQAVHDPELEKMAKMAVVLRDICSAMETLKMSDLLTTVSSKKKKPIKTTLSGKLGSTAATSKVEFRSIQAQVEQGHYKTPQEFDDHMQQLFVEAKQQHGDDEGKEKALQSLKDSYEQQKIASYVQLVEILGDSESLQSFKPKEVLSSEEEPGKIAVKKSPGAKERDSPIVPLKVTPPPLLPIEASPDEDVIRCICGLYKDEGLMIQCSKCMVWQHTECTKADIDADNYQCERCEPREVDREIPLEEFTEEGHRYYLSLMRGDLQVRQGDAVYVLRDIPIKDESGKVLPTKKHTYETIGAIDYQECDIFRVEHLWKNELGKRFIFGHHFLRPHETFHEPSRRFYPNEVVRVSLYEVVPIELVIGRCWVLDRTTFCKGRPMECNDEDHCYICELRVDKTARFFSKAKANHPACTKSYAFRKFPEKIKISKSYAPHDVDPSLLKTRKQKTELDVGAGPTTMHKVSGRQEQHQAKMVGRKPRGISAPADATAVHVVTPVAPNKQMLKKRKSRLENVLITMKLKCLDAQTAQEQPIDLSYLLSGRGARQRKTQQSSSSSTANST

[4] = molecular target: Flag-tagged C-terminal region of hAsh1L (amino acids 1465–2964) (human) (UniProt Q9NR48); experiment: co-IP; human proteins (Supplementary Fig. 1d, e); set-up not shown
[5] = molecular target: T3, recombinant Drosophila Ash1C (1146–2226 aa) (Drosophila) (UniProt Q9VW15); experiment: co-purification of coexpressed recombinant proteins; Ash1C and Mrg15 coexpressed and co-purified as a complex; host and steps not stated
T3 sequence: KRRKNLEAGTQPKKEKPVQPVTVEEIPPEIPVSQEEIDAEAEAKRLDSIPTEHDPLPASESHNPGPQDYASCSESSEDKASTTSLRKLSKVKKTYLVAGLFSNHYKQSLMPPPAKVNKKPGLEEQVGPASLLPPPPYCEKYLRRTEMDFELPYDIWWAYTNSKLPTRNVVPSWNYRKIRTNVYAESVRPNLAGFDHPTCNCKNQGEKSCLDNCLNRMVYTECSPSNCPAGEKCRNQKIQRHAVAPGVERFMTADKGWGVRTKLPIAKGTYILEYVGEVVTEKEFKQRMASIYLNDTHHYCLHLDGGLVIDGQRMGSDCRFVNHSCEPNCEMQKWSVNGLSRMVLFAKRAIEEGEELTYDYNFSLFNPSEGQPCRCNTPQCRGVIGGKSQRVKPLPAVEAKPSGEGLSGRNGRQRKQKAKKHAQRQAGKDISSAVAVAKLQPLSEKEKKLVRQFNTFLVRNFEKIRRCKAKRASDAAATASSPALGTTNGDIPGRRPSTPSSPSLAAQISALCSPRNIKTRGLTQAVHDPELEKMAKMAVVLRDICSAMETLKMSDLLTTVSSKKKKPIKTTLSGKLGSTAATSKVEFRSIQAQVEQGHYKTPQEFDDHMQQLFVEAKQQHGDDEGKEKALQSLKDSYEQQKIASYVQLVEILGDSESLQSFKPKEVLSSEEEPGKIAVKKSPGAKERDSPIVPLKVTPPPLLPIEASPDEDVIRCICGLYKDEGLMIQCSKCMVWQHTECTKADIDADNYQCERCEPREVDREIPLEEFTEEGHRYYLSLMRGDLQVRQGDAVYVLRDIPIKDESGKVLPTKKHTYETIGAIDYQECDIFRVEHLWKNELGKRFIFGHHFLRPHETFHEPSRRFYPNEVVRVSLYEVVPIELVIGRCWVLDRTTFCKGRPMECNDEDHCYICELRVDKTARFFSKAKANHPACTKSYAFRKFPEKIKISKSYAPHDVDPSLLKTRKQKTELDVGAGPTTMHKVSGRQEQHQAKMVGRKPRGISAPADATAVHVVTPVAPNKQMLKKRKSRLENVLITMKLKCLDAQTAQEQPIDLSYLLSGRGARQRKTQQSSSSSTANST

[6] = molecular target: Drosophila Ash1 (endogenous) (Drosophila (endogenous in S2)) (UniProt Q9VW15); experiment: co-IP; endogenous proteins; 2 μg antibodies against Ash1 or Mrg15 (rabbit normal IgG as control) with 2 mg S2 cell nuclear extract in Buffer C at 4 °C overnight; protein G agarose; washed with 500 mM KCl, 0.1% NP40; western blot
[7] = molecular target: T1, Flag-tagged truncated form of Drosophila Ash1 (Ash1C, amino acids 1146–2226) (Drosophila); experiment: co-IP; Flag-tagged Ash1C, its truncations and alanine substitutions; cells not given; remark: listed apart in the source

binding [1]: binds | binding [2]: binds | binding [3]: binds
Molecule: Drosophila Nurf55 (from UniProt Q24572 1-430)

binding [4]: binds
Molecule: RbAp48 (from UniProt Q09028 1-425)

binding [5]: binds
B1: recombinant Drosophila Mrg15 (protein, UniProt Q9Y0I1 1-424)
chain: MGEVKPAKVENYSTGTDANTLFVDGERVLCFHGPLIYEAKVLKTKPDATPVEYYIHYAGWSKNWDEWVPENRVLKYNDDNVKRRQELARQCGERSKKDNKKGSAKAKKMEQMRNESRASTPSKDSNTSQSTASSTPTTSAGPGSKSEAGSTGTTTTNSTANSTTSRAHRKSTQSTPSTARPGTPSDKKEDPAAAETTEEEGPVAPKKKRMSEQRPSLTGSDVAEKPLPPTTTPSTPTTEPAPCVESEEAYAAKVEVKIKIPDELKHYLTDDWYAVVREHKLLELPAKVTVQQISEQYLAHKKSVKSTSASKEVAINDVLDGIVEYFNVMLGSQLLYKFERTQYADVMQKHPDTPLSELYGSFHLLRLFVRLGSMLSYSALDQQSMQNLLTHVQDFLKFLVKNSSIFFSMSNFINVDPEYVRNAQ

binding [1]: binds | binding [6]: binds | binding [7]: binds
B2: Drosophila Mrg15 (protein, UniProt Q9Y0I1 1-424)
chain: MGEVKPAKVENYSTGTDANTLFVDGERVLCFHGPLIYEAKVLKTKPDATPVEYYIHYAGWSKNWDEWVPENRVLKYNDDNVKRRQELARQCGERSKKDNKKGSAKAKKMEQMRNESRASTPSKDSNTSQSTASSTPTTSAGPGSKSEAGSTGTTTTNSTANSTTSRAHRKSTQSTPSTARPGTPSDKKEDPAAAETTEEEGPVAPKKKRMSEQRPSLTGSDVAEKPLPPTTTPSTPTTEPAPCVESEEAYAAKVEVKIKIPDELKHYLTDDWYAVVREHKLLELPAKVTVQQISEQYLAHKKSVKSTSASKEVAINDVLDGIVEYFNVMLGSQLLYKFERTQYADVMQKHPDTPLSELYGSFHLLRLFVRLGSMLSYSALDQQSMQNLLTHVQDFLKFLVKNSSIFFSMSNFINVDPEYVRNAQ
